# Laboratory results taken from doi:10.1101/2021.03.06.434066.
# The chains behind the UniProt entries cited, without tags or fusion partners. Where a name states a change or a piece, a line headed by the entry shows the natural chain unless it says otherwise.
# UniProt P62491: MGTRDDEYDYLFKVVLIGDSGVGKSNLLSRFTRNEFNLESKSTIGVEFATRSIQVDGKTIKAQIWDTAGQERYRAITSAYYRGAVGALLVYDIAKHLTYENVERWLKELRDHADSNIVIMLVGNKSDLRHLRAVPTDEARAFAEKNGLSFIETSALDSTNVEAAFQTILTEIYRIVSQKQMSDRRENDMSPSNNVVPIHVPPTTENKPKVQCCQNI
# UniProt Q8TBN0: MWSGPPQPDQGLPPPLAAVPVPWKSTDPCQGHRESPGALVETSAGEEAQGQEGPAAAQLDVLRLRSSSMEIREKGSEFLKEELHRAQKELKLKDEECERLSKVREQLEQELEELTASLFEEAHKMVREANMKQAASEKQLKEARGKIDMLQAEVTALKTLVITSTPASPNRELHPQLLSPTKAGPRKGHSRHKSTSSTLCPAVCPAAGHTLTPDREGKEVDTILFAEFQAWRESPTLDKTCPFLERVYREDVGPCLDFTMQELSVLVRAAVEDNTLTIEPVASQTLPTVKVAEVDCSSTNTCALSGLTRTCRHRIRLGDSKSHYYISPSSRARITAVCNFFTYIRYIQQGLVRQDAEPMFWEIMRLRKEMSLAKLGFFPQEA
# These are yes or no findings as the source states them, for the method shown. Binding seen in cells or lysates may run through a third protein. Binding calls can cover weak binding; strength is not graded here.
# Key:
# mCherry-Rab11a = mCherry-Rab11a (UniProt P62491); experiment: co-IP
# GRABΔ223-GFP = GRABΔ223-GFP (UniProt Q8TBN0); experiment: co-IP
binding (mCherry-Rab11a),binding (GRABΔ223-GFP),Substance
binds,–,GRABΔ223-GFP (from UniProt Q8TBN0)
–,binds,mCherry-Rab11a (from UniProt P62491 1-216)
